# Results reported in the supplement of paper PMC11006884.
# Chains of the proteins cited; added tags and fusions are not shown. Lines headed by an entry give the natural chain unless they say otherwise; changes in a name come on top.
# UniProt Q9NR46: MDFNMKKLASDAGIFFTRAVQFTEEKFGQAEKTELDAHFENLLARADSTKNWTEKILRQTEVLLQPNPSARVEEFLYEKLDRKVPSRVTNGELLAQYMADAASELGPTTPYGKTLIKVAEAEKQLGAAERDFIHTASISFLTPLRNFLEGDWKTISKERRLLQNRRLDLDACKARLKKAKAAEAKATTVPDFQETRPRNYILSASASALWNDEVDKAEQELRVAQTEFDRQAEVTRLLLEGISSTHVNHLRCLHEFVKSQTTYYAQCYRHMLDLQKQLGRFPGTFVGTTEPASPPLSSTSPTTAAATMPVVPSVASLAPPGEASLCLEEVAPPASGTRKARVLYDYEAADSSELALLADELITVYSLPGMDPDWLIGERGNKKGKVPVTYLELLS
# UniProt Q9H6K4: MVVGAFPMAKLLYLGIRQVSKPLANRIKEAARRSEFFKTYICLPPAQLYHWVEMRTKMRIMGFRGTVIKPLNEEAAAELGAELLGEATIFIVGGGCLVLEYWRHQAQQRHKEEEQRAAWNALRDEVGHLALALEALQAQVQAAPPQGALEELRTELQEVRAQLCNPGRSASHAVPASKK
# UniProt Q9H7N4: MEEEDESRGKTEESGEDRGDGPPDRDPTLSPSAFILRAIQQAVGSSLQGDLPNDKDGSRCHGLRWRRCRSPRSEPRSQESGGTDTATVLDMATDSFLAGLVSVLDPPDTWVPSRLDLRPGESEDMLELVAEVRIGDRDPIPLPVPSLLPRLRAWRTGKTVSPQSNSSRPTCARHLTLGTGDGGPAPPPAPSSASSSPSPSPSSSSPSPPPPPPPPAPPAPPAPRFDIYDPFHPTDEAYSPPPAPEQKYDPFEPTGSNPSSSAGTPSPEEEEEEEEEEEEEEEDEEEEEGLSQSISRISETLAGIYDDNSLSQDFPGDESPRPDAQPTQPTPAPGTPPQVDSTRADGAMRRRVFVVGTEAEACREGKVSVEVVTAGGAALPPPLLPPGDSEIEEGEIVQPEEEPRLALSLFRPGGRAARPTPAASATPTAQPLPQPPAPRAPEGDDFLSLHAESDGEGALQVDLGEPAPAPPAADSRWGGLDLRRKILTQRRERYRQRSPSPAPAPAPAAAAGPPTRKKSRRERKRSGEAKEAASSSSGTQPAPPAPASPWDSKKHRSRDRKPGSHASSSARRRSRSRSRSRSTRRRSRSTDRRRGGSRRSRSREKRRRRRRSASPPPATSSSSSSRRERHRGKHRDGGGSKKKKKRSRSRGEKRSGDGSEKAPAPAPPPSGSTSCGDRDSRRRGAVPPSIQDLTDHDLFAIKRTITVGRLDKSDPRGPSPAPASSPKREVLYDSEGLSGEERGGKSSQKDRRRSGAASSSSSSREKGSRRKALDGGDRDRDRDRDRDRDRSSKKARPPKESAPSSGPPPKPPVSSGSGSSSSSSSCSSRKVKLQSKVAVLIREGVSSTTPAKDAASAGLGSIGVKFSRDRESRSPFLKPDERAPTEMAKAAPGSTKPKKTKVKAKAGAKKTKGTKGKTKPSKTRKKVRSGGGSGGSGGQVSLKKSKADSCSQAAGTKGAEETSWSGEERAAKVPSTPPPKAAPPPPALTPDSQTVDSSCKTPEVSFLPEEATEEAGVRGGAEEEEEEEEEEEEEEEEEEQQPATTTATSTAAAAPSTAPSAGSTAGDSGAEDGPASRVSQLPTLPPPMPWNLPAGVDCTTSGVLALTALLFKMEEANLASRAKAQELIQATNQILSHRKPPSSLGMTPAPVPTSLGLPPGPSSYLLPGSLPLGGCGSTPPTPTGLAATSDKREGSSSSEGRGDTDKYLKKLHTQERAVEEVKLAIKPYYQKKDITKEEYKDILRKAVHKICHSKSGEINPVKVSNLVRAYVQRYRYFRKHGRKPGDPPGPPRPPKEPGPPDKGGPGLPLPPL
# UniProt Q9NPF5, whole entry: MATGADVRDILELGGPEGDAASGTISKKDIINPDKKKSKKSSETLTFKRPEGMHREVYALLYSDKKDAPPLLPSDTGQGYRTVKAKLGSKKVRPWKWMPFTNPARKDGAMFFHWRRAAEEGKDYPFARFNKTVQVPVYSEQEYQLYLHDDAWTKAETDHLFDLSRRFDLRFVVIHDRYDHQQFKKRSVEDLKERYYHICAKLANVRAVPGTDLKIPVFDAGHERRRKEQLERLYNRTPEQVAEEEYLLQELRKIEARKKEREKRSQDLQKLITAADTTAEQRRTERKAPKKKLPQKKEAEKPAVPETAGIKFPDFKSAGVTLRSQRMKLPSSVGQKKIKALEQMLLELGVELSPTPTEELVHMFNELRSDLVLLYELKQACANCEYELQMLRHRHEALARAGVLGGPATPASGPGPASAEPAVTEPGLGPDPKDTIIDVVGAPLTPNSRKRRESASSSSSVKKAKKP
# UniProt Q9H6T3, whole entry: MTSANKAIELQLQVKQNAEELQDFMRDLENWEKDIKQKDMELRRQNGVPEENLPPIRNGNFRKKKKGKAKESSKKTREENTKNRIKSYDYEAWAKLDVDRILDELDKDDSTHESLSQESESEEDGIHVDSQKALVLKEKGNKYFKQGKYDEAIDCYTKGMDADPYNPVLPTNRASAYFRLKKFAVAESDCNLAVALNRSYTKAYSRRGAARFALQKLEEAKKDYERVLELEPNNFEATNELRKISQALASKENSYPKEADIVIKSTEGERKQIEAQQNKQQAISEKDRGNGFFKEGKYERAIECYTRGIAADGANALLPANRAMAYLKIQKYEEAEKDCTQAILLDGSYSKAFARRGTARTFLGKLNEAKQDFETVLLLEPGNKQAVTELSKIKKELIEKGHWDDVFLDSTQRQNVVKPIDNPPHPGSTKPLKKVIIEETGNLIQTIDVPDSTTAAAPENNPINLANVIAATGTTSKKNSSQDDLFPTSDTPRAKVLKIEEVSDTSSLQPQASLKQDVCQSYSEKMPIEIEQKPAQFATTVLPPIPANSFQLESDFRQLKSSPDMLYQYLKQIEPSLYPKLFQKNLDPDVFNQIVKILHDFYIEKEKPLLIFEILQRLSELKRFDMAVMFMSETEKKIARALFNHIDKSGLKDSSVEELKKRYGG
# UniProt Q9NSE4: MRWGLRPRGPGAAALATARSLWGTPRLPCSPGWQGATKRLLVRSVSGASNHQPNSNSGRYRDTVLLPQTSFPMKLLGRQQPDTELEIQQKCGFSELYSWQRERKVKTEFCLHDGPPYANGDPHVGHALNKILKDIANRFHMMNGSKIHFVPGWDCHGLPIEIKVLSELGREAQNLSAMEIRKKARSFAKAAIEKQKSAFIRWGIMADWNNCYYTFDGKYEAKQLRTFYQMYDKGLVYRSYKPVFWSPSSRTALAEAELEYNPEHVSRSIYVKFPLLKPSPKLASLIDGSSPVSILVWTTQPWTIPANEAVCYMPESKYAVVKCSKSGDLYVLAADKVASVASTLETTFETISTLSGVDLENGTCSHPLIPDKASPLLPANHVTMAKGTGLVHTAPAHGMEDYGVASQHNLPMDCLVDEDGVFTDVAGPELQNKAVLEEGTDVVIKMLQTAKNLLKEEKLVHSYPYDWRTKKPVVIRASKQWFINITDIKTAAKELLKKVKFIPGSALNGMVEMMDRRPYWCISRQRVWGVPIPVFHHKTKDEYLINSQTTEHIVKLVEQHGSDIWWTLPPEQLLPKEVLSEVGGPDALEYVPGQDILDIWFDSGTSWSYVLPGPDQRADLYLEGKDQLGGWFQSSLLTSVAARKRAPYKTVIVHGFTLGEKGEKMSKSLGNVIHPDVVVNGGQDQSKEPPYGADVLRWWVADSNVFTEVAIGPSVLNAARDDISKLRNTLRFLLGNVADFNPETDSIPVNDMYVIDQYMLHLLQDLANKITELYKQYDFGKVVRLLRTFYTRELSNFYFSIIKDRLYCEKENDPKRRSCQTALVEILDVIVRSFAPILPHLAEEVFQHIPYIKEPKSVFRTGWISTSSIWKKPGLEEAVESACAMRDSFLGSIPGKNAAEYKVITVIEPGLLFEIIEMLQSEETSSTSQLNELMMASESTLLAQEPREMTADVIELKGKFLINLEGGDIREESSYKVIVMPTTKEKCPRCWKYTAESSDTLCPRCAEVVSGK
# UniProt Q9NSD9: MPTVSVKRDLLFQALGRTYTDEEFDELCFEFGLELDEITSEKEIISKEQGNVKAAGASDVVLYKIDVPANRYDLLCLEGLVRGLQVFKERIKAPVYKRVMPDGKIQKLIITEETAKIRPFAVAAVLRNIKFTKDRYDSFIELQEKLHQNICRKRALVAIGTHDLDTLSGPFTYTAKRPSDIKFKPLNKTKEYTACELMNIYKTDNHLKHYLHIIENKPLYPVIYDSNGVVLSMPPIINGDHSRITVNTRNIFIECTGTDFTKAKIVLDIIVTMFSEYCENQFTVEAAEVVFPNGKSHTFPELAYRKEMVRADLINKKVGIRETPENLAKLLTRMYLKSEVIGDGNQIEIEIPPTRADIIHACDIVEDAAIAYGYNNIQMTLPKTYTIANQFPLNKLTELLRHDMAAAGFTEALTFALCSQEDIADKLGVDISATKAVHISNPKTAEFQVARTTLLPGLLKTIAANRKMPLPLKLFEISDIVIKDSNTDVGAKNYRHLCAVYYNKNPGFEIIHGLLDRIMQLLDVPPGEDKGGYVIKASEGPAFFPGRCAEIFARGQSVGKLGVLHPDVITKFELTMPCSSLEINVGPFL
# UniProt Q9HC38: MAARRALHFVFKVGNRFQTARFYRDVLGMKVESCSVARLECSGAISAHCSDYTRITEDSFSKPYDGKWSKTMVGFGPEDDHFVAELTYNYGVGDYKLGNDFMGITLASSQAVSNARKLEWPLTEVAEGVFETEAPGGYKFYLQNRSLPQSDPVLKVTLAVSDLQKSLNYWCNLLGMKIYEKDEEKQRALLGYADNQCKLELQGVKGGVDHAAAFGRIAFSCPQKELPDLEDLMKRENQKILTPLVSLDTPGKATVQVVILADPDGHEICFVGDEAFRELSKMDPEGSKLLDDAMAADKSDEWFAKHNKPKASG
# UniProt Q9H4B7, whole entry, looked up: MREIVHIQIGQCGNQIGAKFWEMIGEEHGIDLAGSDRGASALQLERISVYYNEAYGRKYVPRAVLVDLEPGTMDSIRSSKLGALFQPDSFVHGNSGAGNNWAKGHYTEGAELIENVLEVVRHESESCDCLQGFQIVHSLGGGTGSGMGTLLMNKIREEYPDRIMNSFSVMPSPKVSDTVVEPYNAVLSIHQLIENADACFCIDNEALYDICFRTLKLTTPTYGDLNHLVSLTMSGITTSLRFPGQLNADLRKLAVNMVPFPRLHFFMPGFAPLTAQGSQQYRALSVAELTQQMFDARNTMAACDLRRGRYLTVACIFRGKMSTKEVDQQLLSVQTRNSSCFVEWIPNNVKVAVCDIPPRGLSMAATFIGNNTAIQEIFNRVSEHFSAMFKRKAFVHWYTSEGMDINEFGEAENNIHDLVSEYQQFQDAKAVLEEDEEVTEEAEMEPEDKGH
# UniProt Q9H840: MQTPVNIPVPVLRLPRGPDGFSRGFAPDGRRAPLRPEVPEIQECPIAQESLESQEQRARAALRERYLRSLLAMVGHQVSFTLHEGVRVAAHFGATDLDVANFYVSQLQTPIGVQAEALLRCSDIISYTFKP
# UniProt Q9HAS0: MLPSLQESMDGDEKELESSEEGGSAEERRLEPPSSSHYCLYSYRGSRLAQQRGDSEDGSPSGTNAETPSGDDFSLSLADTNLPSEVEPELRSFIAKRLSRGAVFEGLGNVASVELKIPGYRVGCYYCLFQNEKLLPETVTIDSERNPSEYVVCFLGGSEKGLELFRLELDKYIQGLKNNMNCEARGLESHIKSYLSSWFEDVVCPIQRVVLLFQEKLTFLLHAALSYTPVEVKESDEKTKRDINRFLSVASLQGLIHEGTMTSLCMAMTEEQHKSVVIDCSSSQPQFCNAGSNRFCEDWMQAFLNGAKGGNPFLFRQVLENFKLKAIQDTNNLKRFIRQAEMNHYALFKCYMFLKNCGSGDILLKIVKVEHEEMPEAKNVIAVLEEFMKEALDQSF
# UniProt Q9H993: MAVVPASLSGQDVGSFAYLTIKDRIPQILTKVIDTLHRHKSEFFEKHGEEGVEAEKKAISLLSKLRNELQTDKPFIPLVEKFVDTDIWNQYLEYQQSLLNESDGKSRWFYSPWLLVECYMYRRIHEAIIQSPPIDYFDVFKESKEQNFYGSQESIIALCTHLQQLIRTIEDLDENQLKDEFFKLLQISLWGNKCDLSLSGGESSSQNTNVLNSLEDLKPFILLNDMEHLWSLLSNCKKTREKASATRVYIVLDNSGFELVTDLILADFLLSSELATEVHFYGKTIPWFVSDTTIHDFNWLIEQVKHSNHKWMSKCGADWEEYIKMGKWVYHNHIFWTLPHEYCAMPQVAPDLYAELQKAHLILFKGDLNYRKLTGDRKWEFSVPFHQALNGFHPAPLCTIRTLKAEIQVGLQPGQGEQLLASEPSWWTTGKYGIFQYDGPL
# The entries are a selection whose mix differs from that of the whole data set.
# Compound: COC(=O)C#Cc1ccccc1 [methyl 3-phenylpropiolate]
# Test: log2 ratio of iodoacetamide-alkyne labeling of the cysteine site, DMSO over compound (competition); higher = stronger covalent engagement of the cysteine by the compound, active = 1 or more
# Conditions: 500 µM; treatment time 1 h; system: HEK293T cell lysate
# How it was run: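 Reporter intensities give each cysteine's log2 competition ratio as the mean of control channels over the mean of compound channels. The samples were HEK293T lysate (2 mg/mL) given vehicle or electrophile (500 µM, 1 h, ambient temperature), then iodoacetamide alkyne (1 h), followed by click coupling to sCIP-TMT reagents, pooling, trypsin digestion overnight at 37 °C, streptavidin enrichment, acid elution, Orbitrap Eclipse LC-MS/MS with FAIMS and FragPipe quantification. Duplicate channels and three replicates were run, and cysteines quantified in only one replicate were discarded.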
row,Target,log2 ratio of iodoacetamide-alkyne labeling
1,GOLPH3L C70 (UniProt Q9H4A5),inactive: 0.00611
2,SH3GLB2 C172 (UniProt Q9NR46),inactive: 0.184
3,ZNF277 C137 (UniProt Q9NRM2),inactive: 0.0277
4,ESF1 C462 (UniProt Q9H501),inactive: 0.309
5,MDN1 C991 (UniProt Q9NU22),inactive: 0.17
6,CXorf56 C96 (UniProt Q9H5V9),inactive: -0.0277
7,TFB2M C383 (UniProt Q9H5Q4),inactive: 0.181
8,OPA3 C164 (UniProt Q9H6K4),inactive: 0.331
9,MCCC2 C167 (UniProt Q9HCC0),inactive: 0.195
10,SCAF1 C675 (UniProt Q9H7N4),inactive: 0.509
11,DMAP1 C199 (UniProt Q9NPF5),inactive: 0.00847
12,RPAP3 C519 (UniProt Q9H6T3),inactive: 0.213
13,CENPH C35 (UniProt Q9H3R5),inactive: 0.442
14,MRPS30 C316 (UniProt Q9NP92),inactive: -0.0799
15,GOPC C408 (UniProt Q9HD26),inactive: 0.52
16,IARS2 C91 (UniProt Q9NSE4),inactive: 0.81
17,CLSPN C397 (UniProt Q9HAW4),inactive: 0.187
18,FARSB C195 (UniProt Q9NSD9),inactive: 0.621
19,GLOD4 C269 (UniProt Q9HC38),inactive: -0.142

row,Target,log2 ratio of iodoacetamide-alkyne labeling
1,SAR1A C178 (UniProt Q9NR31),inactive: 0.0354
2,TUBB1 C12 (UniProt Q9H4B7),inactive: 0.756
3,GEMIN7 C44 (UniProt Q9H840),inactive: 0.0692
4,CXorf56 C11 (UniProt Q9H5V9),inactive: 0.411
5,RPRD1B C234 (UniProt Q9NQG5),inactive: 0.513
6,XPO5 C1025 (UniProt Q9HAV4),inactive: 0.313
7,FARSB C362 (UniProt Q9NSD9),inactive: 0.414
8,DDX31 C286 (UniProt Q9H8H2),inactive: -0.0815
9,C17orf75 C288 (UniProt Q9HAS0),inactive: 0.43
10,HEATR1 C1237 (UniProt Q9H583),inactive: 0.166
11,FARSB C418 (UniProt Q9NSD9),inactive: -0.182
12,ZNF277 C215 (UniProt Q9NRM2),inactive: 0.0405
13,LRRC40 C54 (UniProt Q9H9A6),inactive: 0.555
14,ACBD3 C129 (UniProt Q9H3P7),inactive: 0.643
15,SMARCAD1 C772 (UniProt Q9H4L7),active: 1
16,MCCC2 C267 (UniProt Q9HCC0),inactive: 0.733
17,UniProt Q9H993_C398,inactive: -0.156
18,XPO5 C1044 (UniProt Q9HAV4),inactive: 0.313

# Part of the list above, set out differently.
row	Target	log2 ratio of iodoacetamide-alkyne labeling
5	RPRD1B C234 (UniProt Q9NQG5)	inactive: 0.513
10	HEATR1 C1237 (UniProt Q9H583)	inactive: 0.166
